# Results: the supplement of paper PMC12823440, “Inhibitors supercharge kinase turnover through native proteolytic circuits” (Nature, 2025)
# Amino acid sequences for entries named in this document (tags omitted).
# UniProt P50750, whole entry: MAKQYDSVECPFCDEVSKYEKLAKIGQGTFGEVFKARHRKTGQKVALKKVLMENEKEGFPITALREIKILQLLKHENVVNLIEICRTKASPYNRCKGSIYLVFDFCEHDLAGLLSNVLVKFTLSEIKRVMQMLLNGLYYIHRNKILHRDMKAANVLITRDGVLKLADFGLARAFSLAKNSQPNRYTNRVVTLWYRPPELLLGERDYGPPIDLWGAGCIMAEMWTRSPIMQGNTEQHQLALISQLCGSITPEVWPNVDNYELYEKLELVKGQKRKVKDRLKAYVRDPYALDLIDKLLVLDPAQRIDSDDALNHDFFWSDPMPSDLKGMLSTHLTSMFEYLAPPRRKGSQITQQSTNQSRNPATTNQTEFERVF
# UniProt O96017, whole entry: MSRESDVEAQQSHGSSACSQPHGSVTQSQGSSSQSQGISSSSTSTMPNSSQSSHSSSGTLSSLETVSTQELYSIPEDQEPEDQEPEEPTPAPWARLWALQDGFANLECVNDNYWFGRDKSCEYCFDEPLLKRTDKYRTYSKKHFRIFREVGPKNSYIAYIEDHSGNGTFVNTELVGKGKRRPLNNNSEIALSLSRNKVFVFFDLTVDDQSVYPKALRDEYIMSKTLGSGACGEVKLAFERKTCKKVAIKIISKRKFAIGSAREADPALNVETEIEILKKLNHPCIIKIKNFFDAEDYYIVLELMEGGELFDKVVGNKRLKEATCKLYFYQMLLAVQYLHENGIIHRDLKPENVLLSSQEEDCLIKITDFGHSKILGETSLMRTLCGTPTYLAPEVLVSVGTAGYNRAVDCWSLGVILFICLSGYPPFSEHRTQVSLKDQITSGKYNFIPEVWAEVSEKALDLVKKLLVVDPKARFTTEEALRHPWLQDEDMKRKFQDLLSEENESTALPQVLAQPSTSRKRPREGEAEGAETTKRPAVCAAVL
# The list shows a part of the results. The calls rarely recur for the same compound in another form.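 In K562 cells expressing nanoluciferase-fused kinases, luminescence was recorded at 4 h intervals between 2 and 18 h, normalized as percent of control with DMSO at 100% and a positive control at 0%. A significant (2 sigma) signal drop marks a time point as decreased. The authors' rule for a hit is not shown and takes in more than the number of time points.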
# Molecular target: CDK9 (UniProt P50750)
# Experiment: kinase-Nluc reporter destabilization hit call (1 = scored as downregulated) (binary); higher = compound decreases kinase abundance
# Settings: K562; 2-18 h
row,SMILES,kinase-Nluc reporter destabilization hit call
1,O=c1cc(O)c2ccccc2o1 [4-Hydroxycoumarin] (10 µM),inactive: 0
2,CCCCNc1nc(N)c2[nH]c(=O)n(Cc3ccc(C)nc3)c2n1 (10 µM),inactive: 0
3,CCCS(=O)(=O)Nc1ccc(F)c(-n2cc(-c3cncnc3)c3nc(N(C)C4CCN(CC)CC4)ccc32)c1F (2 µM),inactive: 0
4,C[C@H]1CC[C@]2(NC1)O[C@H]1C[C@H]3[C@@H]4CC[C@H]5C[C@@H](O[C@@H]6O[C@H](CO)[C@H](O[C@@H]7O[C@H](CO)[C@@H](O)[C@H](O[C@@H]8OC[C@@H](O)[C@H](O)[C@H]8O)[C@H]7O[C@@H]7O[C@H](CO)[C@@H](O)[C@H](O)[C@H]7O)[C@H](O)[C@H]6O)CC[C@]5(C)[C@H]4CC[C@]3(C)[C@H]1[C@@H]2C [Tomatine] (2.5 µM),inactive: 0
5,Cc1n[nH]cc1-c1cc2nc([C@@H]3CC4CCN3CC4)[nH]c(=O)c2s1 [Simurosertib] (2.5 µM),inactive: 0
6,O=Cc1cn(Cc2ccc(Cl)cc2)c2ccccc12 [Oncrasin-1] (10 µM),inactive: 0
7,CC(=O)OC(C)(C)/C=C/C(=O)[C@](C)(O)[C@H]1[C@H](O)C[C@@]2(C)[C@@H]3CC=C4[C@@H](C=C(O)C(=O)C4(C)C)[C@]3(C)C(=O)C[C@]12C [Cucurbitacin E] (2.5 µM),inactive: 0
8,C[C@@H]1CC[C@H]2[C@@H](C)C(=O)O[C@@H]3O[C@@]4(C)CC[C@@H]1[C@]32OO4 [Artemisinin] (10 µM),inactive: 0
9,COc1ccc2c(c1)/C(=C/c1cnc[nH]1)C(=O)N2 (2.5 µM),inactive: 0
10,CC(=O)O[C@H]1[C@H]2[C@@H](OC(=O)Cc3ccccc3)[C@@H](C)C[C@]2(OC(C)=O)C(=O)/C(C)=C/[C@@H]2[C@H](CC[C@@]13CO3)C2(C)C [Euphorbiasteroid] (10 µM),inactive: 0
11,O=c1[nH]c2ccccc2n1C1CCN(CCCC(c2ccc(F)cc2)c2ccc(F)cc2)CC1 [Pimozide] (2.5 µM),inactive: 0
12,CC(=O)Oc1ccc(/C=C/c2cc(OC(C)=O)cc(OC(C)=O)c2)cc1 [Triacetylresveratrol] (10 µM),inactive: 0
13,C/C=C(/C)C(=O)O[C@H]1[C@@H]2[C@H](C)C(=O)O[C@@H]2C[C@@H](C)[C@@H]2C=CC(=O)[C@]21C [Brevilin A] (2.5 µM),inactive: 0
14,O=[N+]([O-])/C=C/c1ccc2c(c1)OCO2 (2.5 µM),inactive: 0
15,O=C(O)c1nn(Cc2ccc(Cl)cc2Cl)c2ccccc12 [Lonidamine] (10 µM),inactive: 0
16,CC(=O)c1c(O)c(C)c(O)c(Cc2c(O)c3c(c(C(=O)/C=C/c4ccccc4)c2O)OC(C)(C)C=C3)c1O [Rottlerin] (2 µM),inactive: 0
17,Cn1cc(C2=C(c3cn(C4CCN(Cc5ccccn5)CC4)c4ccccc34)C(=O)NC2=O)c2ccccc21 [Enzastaurin] (10 µM),inactive: 0
18,Cc1ccccc1-n1c(Cn2ncc3c(N)ncnc32)nc2cccc(C)c2c1=O (10 µM),inactive: 0
19,O=c1[nH]c2ccccc2n1C1CCN(Cc2ccc(-c3[nH]c4cc5ncnc5cc4nc3-c3ccccc3)cc2)CC1 [AKT inhibitor VIII] (2.5 µM),inactive: 0
20,C=CC(=O)Nc1ccc2[nH]c(=O)n(C3CCN(Cc4ccc(-c5nc6cc[nH]c(=O)c6cc5-c5ccccc5)cc4)CC3)c2c1 [Borussertib] (10 µM),inactive: 0
21,C[S+]([O-])/C=C/CCN=C=S (stereo not drawn) [Sulforaphene] (10 µM),inactive: 0
22,CC1=C[C@]23C(=O)[C@@H](C=C(CO)[C@@H](O)[C@]2(O)[C@H]1O)[C@H]1[C@@H](C[C@H]3C)C1(C)C [Ingenol] (10 µM),inactive: 0
23,CCCCCCCCCCCCCCCCOC[C@H](COP(=O)([O-])OCC[N+](C)(C)C)OC(C)=O (10 µM),inactive: 0
24,Cc1ccccc1-n1c(Cn2cnc3c(N)ncnc32)nc2cccc(C)c2c1=O (10 µM),inactive: 0
25,COc1ccc2c(c1)[nH]c1c(C)nccc12 [Harmine] (10 µM),inactive: 0
26,O=C(N[C@@H](COc1ccc2[nH]c(=O)[nH]c2c1)c1ccccc1)c1cccn(Cc2ccc(F)c(F)c2)c1=O (2.5 µM),inactive: 0
27,COc1cc2c(cc1F)C(c1ccccc1Cl)=Nc1c(n[nH]c1C)N2 (0.5 µM),inactive: 0
28,N#CC(C#N)=Cc1ccc(O)c(O)c1 [Tyrphostin 23] (10 µM),inactive: 0
29,N#CC(C#N)=NNc1cccc(Cl)c1 (2.5 µM),inactive: 0

# Molecular target: CHEK2 (UniProt O96017)
# Experiment: as above
# Settings: K562; 2-18 h
row,SMILES,kinase-Nluc reporter destabilization hit call
1,O=c1cc(O)c2ccccc2o1 [4-Hydroxycoumarin] (10 µM),inactive: 0
2,CCCCNc1nc(N)c2[nH]c(=O)n(Cc3ccc(C)nc3)c2n1 (10 µM),inactive: 0
3,CCCS(=O)(=O)Nc1ccc(F)c(-n2cc(-c3cncnc3)c3nc(N(C)C4CCN(CC)CC4)ccc32)c1F (2 µM),inactive: 0
4,C[C@H]1CC[C@]2(NC1)O[C@H]1C[C@H]3[C@@H]4CC[C@H]5C[C@@H](O[C@@H]6O[C@H](CO)[C@H](O[C@@H]7O[C@H](CO)[C@@H](O)[C@H](O[C@@H]8OC[C@@H](O)[C@H](O)[C@H]8O)[C@H]7O[C@@H]7O[C@H](CO)[C@@H](O)[C@H](O)[C@H]7O)[C@H](O)[C@H]6O)CC[C@]5(C)[C@H]4CC[C@]3(C)[C@H]1[C@@H]2C [Tomatine] (2.5 µM),inactive: 0
5,Cc1n[nH]cc1-c1cc2nc([C@@H]3CC4CCN3CC4)[nH]c(=O)c2s1 [Simurosertib] (2.5 µM),inactive: 0
6,O=Cc1cn(Cc2ccc(Cl)cc2)c2ccccc12 [Oncrasin-1] (10 µM),inactive: 0
7,CC(=O)OC(C)(C)/C=C/C(=O)[C@](C)(O)[C@H]1[C@H](O)C[C@@]2(C)[C@@H]3CC=C4[C@@H](C=C(O)C(=O)C4(C)C)[C@]3(C)C(=O)C[C@]12C [Cucurbitacin E] (2.5 µM),inactive: 0
8,C[C@@H]1CC[C@H]2[C@@H](C)C(=O)O[C@@H]3O[C@@]4(C)CC[C@@H]1[C@]32OO4 [Artemisinin] (10 µM),inactive: 0
9,COc1ccc2c(c1)/C(=C/c1cnc[nH]1)C(=O)N2 (2.5 µM),inactive: 0
10,CC(=O)O[C@H]1[C@H]2[C@@H](OC(=O)Cc3ccccc3)[C@@H](C)C[C@]2(OC(C)=O)C(=O)/C(C)=C/[C@@H]2[C@H](CC[C@@]13CO3)C2(C)C [Euphorbiasteroid] (10 µM),inactive: 0
11,O=c1[nH]c2ccccc2n1C1CCN(CCCC(c2ccc(F)cc2)c2ccc(F)cc2)CC1 [Pimozide] (2.5 µM),inactive: 0
12,CC(=O)Oc1ccc(/C=C/c2cc(OC(C)=O)cc(OC(C)=O)c2)cc1 [Triacetylresveratrol] (10 µM),inactive: 0
13,C/C=C(/C)C(=O)O[C@H]1[C@@H]2[C@H](C)C(=O)O[C@@H]2C[C@@H](C)[C@@H]2C=CC(=O)[C@]21C [Brevilin A] (2.5 µM),inactive: 0
14,O=[N+]([O-])/C=C/c1ccc2c(c1)OCO2 (2.5 µM),inactive: 0
15,O=C(O)c1nn(Cc2ccc(Cl)cc2Cl)c2ccccc12 [Lonidamine] (10 µM),inactive: 0
16,CC(=O)c1c(O)c(C)c(O)c(Cc2c(O)c3c(c(C(=O)/C=C/c4ccccc4)c2O)OC(C)(C)C=C3)c1O [Rottlerin] (2 µM),inactive: 0
17,Cn1cc(C2=C(c3cn(C4CCN(Cc5ccccn5)CC4)c4ccccc34)C(=O)NC2=O)c2ccccc21 [Enzastaurin] (10 µM),inactive: 0
18,Cc1ccccc1-n1c(Cn2ncc3c(N)ncnc32)nc2cccc(C)c2c1=O (10 µM),inactive: 0
19,O=c1[nH]c2ccccc2n1C1CCN(Cc2ccc(-c3[nH]c4cc5ncnc5cc4nc3-c3ccccc3)cc2)CC1 [AKT inhibitor VIII] (2.5 µM),inactive: 0
20,C=CC(=O)Nc1ccc2[nH]c(=O)n(C3CCN(Cc4ccc(-c5nc6cc[nH]c(=O)c6cc5-c5ccccc5)cc4)CC3)c2c1 [Borussertib] (10 µM),inactive: 0
21,C[S+]([O-])/C=C/CCN=C=S (stereo not drawn) [Sulforaphene] (10 µM),inactive: 0
22,CC1=C[C@]23C(=O)[C@@H](C=C(CO)[C@@H](O)[C@]2(O)[C@H]1O)[C@H]1[C@@H](C[C@H]3C)C1(C)C [Ingenol] (10 µM),inactive: 0
23,CCCCCCCCCCCCCCCCOC[C@H](COP(=O)([O-])OCC[N+](C)(C)C)OC(C)=O (10 µM),inactive: 0
24,Cc1ccccc1-n1c(Cn2cnc3c(N)ncnc32)nc2cccc(C)c2c1=O (10 µM),inactive: 0
25,COc1ccc2c(c1)[nH]c1c(C)nccc12 [Harmine] (10 µM),inactive: 0
26,O=C(N[C@@H](COc1ccc2[nH]c(=O)[nH]c2c1)c1ccccc1)c1cccn(Cc2ccc(F)c(F)c2)c1=O (2.5 µM),inactive: 0
27,COc1cc2c(cc1F)C(c1ccccc1Cl)=Nc1c(n[nH]c1C)N2 (0.5 µM),inactive: 0
28,N#CC(C#N)=Cc1ccc(O)c(O)c1 [Tyrphostin 23] (10 µM),inactive: 0
29,N#CC(C#N)=NNc1cccc(Cl)c1 (2.5 µM),inactive: 0
